Laboratory results: the supplement of paper PMC12067093, “Discovery and optimisation of a covalent ligand for TRIM25 and its application to targeted protein ubiquitination” (Chemical Science, 2025)
The list shows a part of the results.

The chains behind the UniProt entries cited, without tags or fusion partners. Where a name states a change or a piece, a line headed by the entry shows the natural chain unless it says otherwise.
UniProt O14981: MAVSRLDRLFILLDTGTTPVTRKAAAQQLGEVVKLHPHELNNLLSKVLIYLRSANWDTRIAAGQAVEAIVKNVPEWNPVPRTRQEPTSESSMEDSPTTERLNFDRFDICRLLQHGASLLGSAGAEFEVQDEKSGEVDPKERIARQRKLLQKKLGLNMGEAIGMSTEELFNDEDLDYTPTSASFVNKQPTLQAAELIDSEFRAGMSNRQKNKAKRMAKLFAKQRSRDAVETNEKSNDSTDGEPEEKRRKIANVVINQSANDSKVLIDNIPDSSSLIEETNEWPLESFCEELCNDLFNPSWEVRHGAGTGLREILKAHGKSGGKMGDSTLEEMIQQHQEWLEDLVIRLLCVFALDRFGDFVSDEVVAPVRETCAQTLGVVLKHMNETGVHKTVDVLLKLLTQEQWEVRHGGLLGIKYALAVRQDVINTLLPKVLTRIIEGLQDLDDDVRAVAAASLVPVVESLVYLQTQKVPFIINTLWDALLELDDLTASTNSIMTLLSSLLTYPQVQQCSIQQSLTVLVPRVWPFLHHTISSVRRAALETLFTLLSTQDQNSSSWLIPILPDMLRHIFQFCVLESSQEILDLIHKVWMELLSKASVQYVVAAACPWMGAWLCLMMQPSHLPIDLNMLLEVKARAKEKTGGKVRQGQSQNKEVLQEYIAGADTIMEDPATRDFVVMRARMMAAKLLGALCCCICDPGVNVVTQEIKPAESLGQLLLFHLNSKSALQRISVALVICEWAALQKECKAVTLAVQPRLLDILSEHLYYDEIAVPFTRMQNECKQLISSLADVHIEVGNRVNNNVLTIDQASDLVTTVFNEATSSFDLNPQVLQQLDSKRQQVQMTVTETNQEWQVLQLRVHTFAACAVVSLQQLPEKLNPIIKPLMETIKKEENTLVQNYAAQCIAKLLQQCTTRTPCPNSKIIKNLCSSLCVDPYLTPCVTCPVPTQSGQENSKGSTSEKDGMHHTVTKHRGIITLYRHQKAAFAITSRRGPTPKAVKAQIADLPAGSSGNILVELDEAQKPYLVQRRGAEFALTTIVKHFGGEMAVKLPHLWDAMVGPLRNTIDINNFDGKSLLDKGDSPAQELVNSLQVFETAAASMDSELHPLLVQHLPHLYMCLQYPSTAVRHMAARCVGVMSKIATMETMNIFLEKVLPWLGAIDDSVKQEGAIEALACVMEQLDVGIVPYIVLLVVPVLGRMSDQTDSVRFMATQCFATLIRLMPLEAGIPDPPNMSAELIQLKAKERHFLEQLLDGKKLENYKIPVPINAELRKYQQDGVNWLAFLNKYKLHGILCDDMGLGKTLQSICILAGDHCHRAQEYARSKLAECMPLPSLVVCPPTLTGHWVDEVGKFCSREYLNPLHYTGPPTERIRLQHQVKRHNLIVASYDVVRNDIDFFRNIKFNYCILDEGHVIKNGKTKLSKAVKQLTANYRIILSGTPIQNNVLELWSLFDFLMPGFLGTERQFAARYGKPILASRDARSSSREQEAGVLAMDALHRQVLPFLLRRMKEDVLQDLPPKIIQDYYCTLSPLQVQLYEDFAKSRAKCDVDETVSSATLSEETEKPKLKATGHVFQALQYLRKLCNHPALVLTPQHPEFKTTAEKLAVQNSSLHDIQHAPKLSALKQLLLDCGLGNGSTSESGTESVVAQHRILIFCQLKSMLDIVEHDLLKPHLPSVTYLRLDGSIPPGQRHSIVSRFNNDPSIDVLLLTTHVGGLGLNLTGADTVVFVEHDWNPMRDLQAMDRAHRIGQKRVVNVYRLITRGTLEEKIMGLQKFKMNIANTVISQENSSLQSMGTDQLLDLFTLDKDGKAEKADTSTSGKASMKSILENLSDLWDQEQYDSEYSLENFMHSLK
UniProt Q6PJG6: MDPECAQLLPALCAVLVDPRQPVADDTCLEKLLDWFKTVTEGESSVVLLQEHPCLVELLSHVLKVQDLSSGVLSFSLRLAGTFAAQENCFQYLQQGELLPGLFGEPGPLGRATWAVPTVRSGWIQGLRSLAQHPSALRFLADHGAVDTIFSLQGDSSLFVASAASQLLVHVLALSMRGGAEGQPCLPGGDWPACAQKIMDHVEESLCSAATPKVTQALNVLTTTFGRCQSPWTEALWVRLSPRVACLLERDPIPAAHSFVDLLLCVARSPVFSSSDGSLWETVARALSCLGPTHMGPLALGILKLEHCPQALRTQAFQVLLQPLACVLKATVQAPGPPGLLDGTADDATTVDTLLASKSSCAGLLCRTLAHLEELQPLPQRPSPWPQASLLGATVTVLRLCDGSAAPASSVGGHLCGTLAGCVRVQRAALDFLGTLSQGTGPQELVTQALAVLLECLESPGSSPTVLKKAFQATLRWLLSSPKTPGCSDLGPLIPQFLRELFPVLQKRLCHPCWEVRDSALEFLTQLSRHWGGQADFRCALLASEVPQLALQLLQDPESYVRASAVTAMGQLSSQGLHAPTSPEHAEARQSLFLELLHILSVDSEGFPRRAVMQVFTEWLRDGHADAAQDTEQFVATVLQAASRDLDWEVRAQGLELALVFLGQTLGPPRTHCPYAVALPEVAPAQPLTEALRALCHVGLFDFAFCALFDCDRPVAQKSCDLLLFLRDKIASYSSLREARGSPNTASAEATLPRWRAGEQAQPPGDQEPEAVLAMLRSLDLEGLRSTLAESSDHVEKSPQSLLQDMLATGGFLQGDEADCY
UniProt Q06187: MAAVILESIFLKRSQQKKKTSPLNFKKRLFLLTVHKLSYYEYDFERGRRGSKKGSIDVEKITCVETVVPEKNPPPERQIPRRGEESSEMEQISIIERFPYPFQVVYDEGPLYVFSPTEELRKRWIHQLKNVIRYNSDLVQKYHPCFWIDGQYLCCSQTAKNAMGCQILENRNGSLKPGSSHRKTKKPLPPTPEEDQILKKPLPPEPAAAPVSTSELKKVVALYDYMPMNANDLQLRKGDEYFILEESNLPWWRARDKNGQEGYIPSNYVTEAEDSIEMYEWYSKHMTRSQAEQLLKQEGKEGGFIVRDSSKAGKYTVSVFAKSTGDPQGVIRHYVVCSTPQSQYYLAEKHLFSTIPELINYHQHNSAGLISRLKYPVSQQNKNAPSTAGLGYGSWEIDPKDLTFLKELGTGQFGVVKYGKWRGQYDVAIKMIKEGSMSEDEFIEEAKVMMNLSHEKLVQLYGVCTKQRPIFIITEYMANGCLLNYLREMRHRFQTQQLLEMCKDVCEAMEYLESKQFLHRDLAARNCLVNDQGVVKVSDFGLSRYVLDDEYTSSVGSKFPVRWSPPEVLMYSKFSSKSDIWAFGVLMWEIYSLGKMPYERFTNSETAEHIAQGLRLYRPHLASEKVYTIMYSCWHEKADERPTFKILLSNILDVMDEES
UniProt Q5T5Y3: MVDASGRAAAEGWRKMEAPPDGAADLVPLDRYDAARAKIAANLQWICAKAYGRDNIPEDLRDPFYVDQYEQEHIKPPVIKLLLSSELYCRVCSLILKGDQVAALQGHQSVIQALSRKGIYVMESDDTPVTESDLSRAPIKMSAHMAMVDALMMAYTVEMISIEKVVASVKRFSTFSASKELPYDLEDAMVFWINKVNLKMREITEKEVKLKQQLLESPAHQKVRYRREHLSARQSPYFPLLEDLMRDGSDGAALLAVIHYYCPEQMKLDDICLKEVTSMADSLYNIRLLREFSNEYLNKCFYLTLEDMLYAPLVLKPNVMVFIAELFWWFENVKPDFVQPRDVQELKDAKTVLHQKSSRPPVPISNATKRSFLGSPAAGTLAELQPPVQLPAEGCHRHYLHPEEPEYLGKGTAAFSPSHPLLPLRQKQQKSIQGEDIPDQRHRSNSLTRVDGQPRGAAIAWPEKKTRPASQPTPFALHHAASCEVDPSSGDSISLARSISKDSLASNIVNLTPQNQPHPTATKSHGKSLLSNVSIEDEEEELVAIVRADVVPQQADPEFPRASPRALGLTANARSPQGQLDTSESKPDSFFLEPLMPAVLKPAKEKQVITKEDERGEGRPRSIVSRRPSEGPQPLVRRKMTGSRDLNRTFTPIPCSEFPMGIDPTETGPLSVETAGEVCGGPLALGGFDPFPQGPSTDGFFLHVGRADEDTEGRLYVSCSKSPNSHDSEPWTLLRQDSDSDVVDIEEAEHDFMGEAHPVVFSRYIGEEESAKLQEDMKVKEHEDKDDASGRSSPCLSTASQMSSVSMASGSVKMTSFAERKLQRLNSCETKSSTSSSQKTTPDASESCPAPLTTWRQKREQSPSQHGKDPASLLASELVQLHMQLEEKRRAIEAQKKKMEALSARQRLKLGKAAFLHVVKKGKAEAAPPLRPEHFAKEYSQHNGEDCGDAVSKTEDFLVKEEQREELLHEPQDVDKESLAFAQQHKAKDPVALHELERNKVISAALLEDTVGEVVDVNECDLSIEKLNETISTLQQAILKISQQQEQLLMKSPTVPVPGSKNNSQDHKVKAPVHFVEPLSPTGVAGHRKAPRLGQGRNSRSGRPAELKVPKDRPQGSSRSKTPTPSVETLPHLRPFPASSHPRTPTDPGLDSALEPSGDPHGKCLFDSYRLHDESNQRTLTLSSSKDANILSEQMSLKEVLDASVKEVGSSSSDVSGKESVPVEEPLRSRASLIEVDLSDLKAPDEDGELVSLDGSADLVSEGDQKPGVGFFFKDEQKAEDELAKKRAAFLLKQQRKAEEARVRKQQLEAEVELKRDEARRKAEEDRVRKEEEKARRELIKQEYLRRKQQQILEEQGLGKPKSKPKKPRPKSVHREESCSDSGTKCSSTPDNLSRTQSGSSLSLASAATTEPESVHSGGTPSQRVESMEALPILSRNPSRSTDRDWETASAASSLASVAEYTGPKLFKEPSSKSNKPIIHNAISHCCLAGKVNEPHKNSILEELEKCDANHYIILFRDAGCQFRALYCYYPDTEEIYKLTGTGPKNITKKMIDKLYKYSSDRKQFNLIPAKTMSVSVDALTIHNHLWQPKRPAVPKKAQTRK
UniProt O95696: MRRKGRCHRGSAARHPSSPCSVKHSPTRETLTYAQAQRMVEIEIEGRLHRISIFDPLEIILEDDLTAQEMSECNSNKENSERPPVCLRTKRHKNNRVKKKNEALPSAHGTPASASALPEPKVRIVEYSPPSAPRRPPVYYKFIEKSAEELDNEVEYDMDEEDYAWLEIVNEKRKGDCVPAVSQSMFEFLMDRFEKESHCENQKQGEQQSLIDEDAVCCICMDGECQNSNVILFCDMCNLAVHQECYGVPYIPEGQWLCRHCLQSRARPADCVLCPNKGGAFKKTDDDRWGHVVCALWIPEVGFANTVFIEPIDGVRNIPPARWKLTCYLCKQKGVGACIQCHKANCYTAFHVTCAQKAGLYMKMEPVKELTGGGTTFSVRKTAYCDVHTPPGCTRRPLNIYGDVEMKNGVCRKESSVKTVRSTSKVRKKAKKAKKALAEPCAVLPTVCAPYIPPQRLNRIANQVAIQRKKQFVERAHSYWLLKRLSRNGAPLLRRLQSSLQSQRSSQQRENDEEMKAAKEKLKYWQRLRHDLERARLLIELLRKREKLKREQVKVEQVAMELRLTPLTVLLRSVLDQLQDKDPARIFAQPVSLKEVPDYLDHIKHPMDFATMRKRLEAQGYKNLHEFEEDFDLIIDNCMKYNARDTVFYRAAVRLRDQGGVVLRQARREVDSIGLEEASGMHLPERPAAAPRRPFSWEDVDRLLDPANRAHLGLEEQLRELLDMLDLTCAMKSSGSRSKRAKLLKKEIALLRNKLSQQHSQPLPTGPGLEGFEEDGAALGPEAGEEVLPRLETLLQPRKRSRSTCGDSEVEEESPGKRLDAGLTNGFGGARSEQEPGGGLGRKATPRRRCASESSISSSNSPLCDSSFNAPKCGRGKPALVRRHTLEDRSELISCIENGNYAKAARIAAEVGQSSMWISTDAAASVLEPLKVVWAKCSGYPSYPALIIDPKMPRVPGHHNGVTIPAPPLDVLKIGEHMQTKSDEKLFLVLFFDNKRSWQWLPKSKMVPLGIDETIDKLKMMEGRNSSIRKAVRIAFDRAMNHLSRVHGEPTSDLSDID
UniProt Q8N999, whole entry, looked up: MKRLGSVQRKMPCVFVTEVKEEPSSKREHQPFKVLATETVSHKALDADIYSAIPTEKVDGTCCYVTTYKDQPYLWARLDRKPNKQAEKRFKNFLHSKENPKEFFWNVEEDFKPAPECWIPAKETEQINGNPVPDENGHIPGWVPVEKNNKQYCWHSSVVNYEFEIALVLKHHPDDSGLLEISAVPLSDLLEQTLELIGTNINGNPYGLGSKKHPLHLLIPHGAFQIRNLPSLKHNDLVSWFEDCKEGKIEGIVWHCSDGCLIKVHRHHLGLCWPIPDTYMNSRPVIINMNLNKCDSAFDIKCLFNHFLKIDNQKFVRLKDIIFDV
UniProt Q9NWV4: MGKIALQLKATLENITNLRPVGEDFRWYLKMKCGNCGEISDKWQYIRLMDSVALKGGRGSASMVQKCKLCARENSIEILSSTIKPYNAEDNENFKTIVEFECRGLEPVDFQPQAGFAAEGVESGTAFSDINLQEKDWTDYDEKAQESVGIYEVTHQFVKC

The targets below were run with CC1Cc2ccccc2N1C(=O)C1CCCN(C1)C(=O)CCl (mixture of isomers) [TRIM25 ligand 11 (diastereomer mixture)] (assay: probe-labelled cysteine peptide fold change vs DMSO (competition) (log2 fold change); higher = less target engagement (more negative = stronger competition)). Settings: 50 µM; THP-1; incubation time: 4 h.
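Further: competitive chemoproteomic profiling in live THP-1 cells with an iodoacetamide desthiobiotin (IA-DTB) probe, comparing probe-labelled peptide intensities in compound-treated cells against DMSO-treated controls.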

Target | probe-labelled cysteine peptide fold change
BRD8_Q9H0E9-2_941_CAIEADMK (UniProt Q9H0E9) | -0.162
C20orf27_Q9GZN8_106_CEYSAHK (UniProt Q9GZN8) | -0.0654
BTAF1_O14981_1651_ILIFCQLK (UniProt O14981) | 0.157
CAD_P27708_1529_CDFALFLGASSENAGTLGTVAGSAAGLK (UniProt P27708) | -0.128
C8orf82_Q6P1X6_98_YEAAFPFLSPCGR (UniProt Q6P1X6) | 0.0172
BRAT1_Q6PJG6_308_LEHCPQALR (UniProt Q6PJG6) | 0.00856
BRAF_P15056_696_LMAECLK (UniProt P15056) | 0.00871
BTK_Q06187_165_NAMGCQILENR (UniProt Q06187) | -0.24
BST1_Q10588_271+280_LLQCVDHSTHPDCALK (UniProt Q10588) | -0.00153
BRD4_O60885_674_YVTSCLR (UniProt O60885) | 0.039
CAMSAP1_Q5T5Y3_947_EYSQHNGEDCGDAVSK (UniProt Q5T5Y3) | -0.206
BRD1_O95696_729_ELLDMLDLTCAMK (UniProt O95696) | -0.232
C1orf50_Q9BV19_189_ISMMDTLLSQSVALPPCTEPNFQGLTH (UniProt Q9BV19) | -0.171
C11orf54_Q9H0W9_3_ACAEFSFHVPSLEELAGVMQK (UniProt Q9H0W9) | -0.183
C16orf62_Q7Z3J2_277_ETCLNWFFK (UniProt Q7Z3J2) | 0.136
CALCOCO2_Q13137_443_QIFEDHVFCHSL (UniProt Q13137) | -0.242
BSG_P35613_242_SSEHINEGETAMLVCK (UniProt P35613) | -0.171
BTAF1_O14981_1290_LHGILCDDMGLGK (UniProt O14981) | -0.104
CAD_P27708_183_ILALDCGLK (UniProt P27708) | 0.0144
C16orf62_Q7Z3J2_864_LCETVMAQILEHLK (UniProt Q7Z3J2) | -0.045

Target | probe-labelled cysteine peptide fold change
CAMSAP1_Q5T5Y3_47_IAANLQWICAK (UniProt Q5T5Y3) | -0.0352
C20orf27_Q9GZN8_156_CVGAELEYDSEHSDWHGFD (UniProt Q9GZN8) | -0.14
CAD_P27708_2016_GESLADSVQTMSCYADVVVLR (UniProt P27708) | 0.0475
BRD1_O95696_86_ENSERPPVCLR (UniProt O95696) | -0.3
C15orf40_Q8WUR7_62_GCVTIAIHAK (UniProt Q8WUR7) | -0.0865
CALR_P27797_137_LFPNSLDQTDMHGDSEYNIMFGPDICGPGTK (UniProt P27797) | -0.224
BRAT1_Q6PJG6_513_LCHPCWEVR (UniProt Q6PJG6) | -0.318
CALR_P27797_137_LFPNSLDQTDMHGDSEYNIMFGPDICGPGTKK (UniProt P27797) | -0.321
CACYBP_Q9HB71_154_VKTDTVLILCR (UniProt Q9HB71) | -0.221
C3orf80_F5H4A9_177_SDPSCASEHEMR (UniProt F5H4A9) | -0.00987
BTK_Q06187_337_HYVVCSTPQSQYYLAEK (UniProt Q06187) | 0.00342
BRAT1_Q6PJG6_228_CQSPWTEALWVR (UniProt Q6PJG6) | -0.434
BRD4_O60885_607_CKPMSYEEK (UniProt O60885) | -0.0531
C12orf29_Q8N999_13_KMPCVFVTEVK (UniProt Q8N999) | -0.15
C12orf29_Q8N999_302_CLFNHFLK (UniProt Q8N999) | -0.289
BTK_Q06187_502_FQTQQLLEMCK (UniProt Q06187) | 0.191
CAMK2D_Q13557_428_SNKPIHTIILNPHVHLVGDDAACIAYIR (UniProt Q13557) | -0.0114
CAMK1D_Q8IU85_270_YTCEQAAR (UniProt Q8IU85) | 0.0147
C1QBP_Q07021_186_ALVLDCHYPEDEVGQEDEAESDIFSIR (UniProt Q07021) | 0.0508
C1orf123_Q9NWV4_102_TIVEFECR (UniProt Q9NWV4) | 0.102
